At least one peptide structure holds a part that was inferred or is arguable (an end, a ring closure or a residue). No end group written: not given here.
System: colon cancer cell line Colon-26
Experiment: In vivo antitumor activity of mouse CTL induced by hsp105-derived peptide, Colon-26 tumor
Set-up: species or system BALB/c mouse
Settings: tumor 5 mm, 1 week later, HE staining, FIG. 8

Q: NYGIYKQDL [A24-1, NYGIYKQDL] was tested. Which “Colon-26 tumor mass after local injection of peptide-induced CTL” value did it give?
A: the tumor was clearly reduced

From patent publication US9404925B2, “Cancer antigen and use thereof” (MEDINET CO., LTD., priority 2002, dated 2016)
